# PubChem BioAssay AID1671190 (National Center for Advancing Translational Sciences (NCATS), 2021)
# The chains behind the UniProt entries cited, without tags or fusion partners. Where a name states a change or a piece, a line headed by the entry shows the natural chain unless it says otherwise.
# UniProt P18054: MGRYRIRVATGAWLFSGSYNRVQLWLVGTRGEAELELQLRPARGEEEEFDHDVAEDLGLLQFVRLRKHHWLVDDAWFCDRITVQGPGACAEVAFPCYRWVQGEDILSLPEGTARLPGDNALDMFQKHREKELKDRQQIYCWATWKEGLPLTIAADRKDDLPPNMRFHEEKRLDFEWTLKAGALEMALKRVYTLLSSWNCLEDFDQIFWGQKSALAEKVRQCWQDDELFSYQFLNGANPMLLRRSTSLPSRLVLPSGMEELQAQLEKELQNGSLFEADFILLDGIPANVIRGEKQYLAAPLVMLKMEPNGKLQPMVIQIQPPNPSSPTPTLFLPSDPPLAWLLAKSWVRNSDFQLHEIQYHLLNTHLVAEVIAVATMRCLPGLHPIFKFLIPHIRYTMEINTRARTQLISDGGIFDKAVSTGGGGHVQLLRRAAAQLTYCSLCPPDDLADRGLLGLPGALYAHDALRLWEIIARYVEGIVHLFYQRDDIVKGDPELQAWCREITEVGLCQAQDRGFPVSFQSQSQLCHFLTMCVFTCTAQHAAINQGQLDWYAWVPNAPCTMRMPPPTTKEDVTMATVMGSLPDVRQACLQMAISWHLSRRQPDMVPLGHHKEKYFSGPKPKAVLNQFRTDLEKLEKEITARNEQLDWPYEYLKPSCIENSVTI
# “And” between values parts separate entries of the source, which are not always exact repeats. Identical values can stand only once. About 6,100 (1.1%) of roughly 580,000 compounds were called active. Inconclusive means that the source gave no clear call. Such entries were picked first, then a sample of the others. Calls follow the shape of the dose curve; as a rule, active = well fitted inhibition curve with a large enough effect; inconclusive = small, poorly fitted or top-dose-only effect, or another doubt; inactive = no such curve, though single readings can be large or run the other way. Potencies beside an inconclusive call are fits to weak or partial responses and may not hold up.
# Target: Polyunsaturated fatty acid lipoxygenase ALOX12 (Homo sapiens) (UniProt P18054)
# Assay: Primary qHTS assay for inhibitors of human arachidonate 12S-lipoxygenase (ALOX12): Round 2
# Conditions: purified 12hLO, xylenol orange hydroperoxide absorbance; series mostly up to 108 µM
# How it was run: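 Purified human 12hLO at 150 nM in 25 mM Hepes, 0.01% Triton X-100, pH 7.0, preincubated 15 min at room temperature with compound. Reaction started with 40 uM arachidonic acid, 30 min at room temperature. Hydroperoxide measured by Fe-xylenol orange, 573/405 nm absorbance ratio.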
# Potency is read from the fitted curve at half-maximal effect.
row,SMILES,Potency
1,CC(C)CN1CCN(Cc2cccc3c2OCO3)CC1CCO (stereo not drawn),"inconclusive: 100 µM [inhibitor, partial curve, poor fit]"
2,Clc1ccc(CSC(Cn2ccnc2)c2ccc(Cl)cc2Cl)cc1 (stereo not drawn),"inconclusive: 79.4 µM [inhibitor, partial curve, poor fit]"
3,C=CCN1C(=O)/C(=C/c2cc(C)n(-c3cccnc3)c2C)C(=O)NC1=S,"inconclusive: 70.8 µM [inhibitor, partial curve, poor fit]"
4,CC(=O)Nc1ccc2n(c1=O)C[C@H]1C[C@@H]2CN(C(=O)c2ccccn2)C1,inactive
5,CC(C)Oc1cc(-n2c(=S)[nH]c3ccccc3c2=O)c(Cl)cc1Cl,inactive
6,CCOC(=O)c1c(C)n(Cc2ccccc2)c2ccc(OCC(O)Cn3nc(C)cc3C)cc12 (stereo not drawn),"inconclusive: 44.7 µM [inhibitor, partial curve, poor fit]"
7,O=C(N/N=C/c1c(O)n(Cc2ccccc2)c(=O)[nH]c1=O)c1ccccc1O,"inconclusive: 44.7 µM [inhibitor, partial curve]"
8,C=CCn1c(O)c(C(C)=Nc2cccc(C(F)(F)F)c2)c(=O)[nH]c1=O,"inconclusive: 35.5 µM [inhibitor, partial curve, poor fit]"
9,CCOC(=O)c1cccc(NC(=O)c2c(O)[nH]c(=O)[nH]c2=O)c1,"inconclusive: 31.6 µM [inhibitor, partial curve, poor fit]"
10,CCC(c1nnnn1-c1ccc2c(c1)OCCO2)N1CCC2(CC1)C(=O)NCN2c1ccccc1 (stereo not drawn),"inconclusive: 44.7 µM [inhibitor, partial curve, poor fit]"
11,NCCc1cc(O)c(O)cc1O,"inactive and inconclusive: 2.51 µM [inhibitor, full curve, poor fit] and inconclusive: 17.8 µM [inhibitor, partial curve, poor fit]"
12,O=C1OCC2(CCN(Cc3cccc(Cl)c3)C2)N1c1ccncc1 (stereo not drawn),inactive
13,CCOP(=O)(OCC)Oc1cc(C)c(N(C)C)c(C)c1,"inconclusive: 2 µM [inhibitor, full curve, poor fit]"
14,CN1C(=O)C(Cc2ccc(OCc3ccccc3)cc2)C(=O)N(C)C1=O,"inconclusive: 39.8 µM [inhibitor, single point]"
15,CC(C)(C)NC(=O)Cn1cc(C(=O)c2ccccc2F)c2ccccc21,inactive
16,Cc1sc(-n2c(C)cc(C=C3C(=O)NC(=O)NC3=O)c2C)c(C#N)c1C,"inconclusive: 44.7 µM [inhibitor, partial curve]"
17,c1cnc(N2CCNCC2)nc1,"inconclusive: 39.8 µM [inhibitor, partial curve, poor fit]"
18,CC(C)(C)c1ccc(C(=O)C2CCCN(C3CCC3)C2)cc1 (stereo not drawn),"inconclusive: 50.1 µM [inhibitor, single point]"
19,CCCCC1CN2CCCC2CN1 (stereo not drawn),"inconclusive: 7.08 µM [inhibitor, full curve, poor fit]"
20,CC1=C(C(=O)OCc2ccccc2)C2(C(=O)Nc3ccccc32)C(C(=O)OC(C)(C)C)=C(N)O1 (stereo not drawn),"inconclusive: 141 µM [inhibitor, single point]"
21,COc1ccc(OCC(=O)N2CCN(Cc3cccc(OC)c3OC)CC2)cc1,"inconclusive: 1.78 µM [inhibitor, full curve]"
22,O=C(NCc1ccccc1)[C@H]1CN2CC[C@H]1C[C@@H]2Cn1cc(-c2ccccn2)nn1,inactive

row,SMILES,Potency
1,COc1ccc(CNC(=O)C(Cl)(Cl)Cl)cc1,inactive
2,C#C[C@]1(O)CC[C@H]2[C@@H]3CCC4=Cc5nc6nc7ccccc7n6cc5C[C@]4(C)[C@H]3CC[C@@]21C,inactive
3,Cc1cc(OCC(=O)N2CCN(CCc3ccncc3)CC2)ccc1Cl,"inactive and inconclusive: 50.1 µM [inhibitor, partial curve, poor fit]"
4,CC/C(=N\NC(=O)c1ccccc1O)c1c(O)n(C2CCCCC2)c(=O)[nH]c1=O,inactive
5,CSCC(=O)N1CC(CO)C2(CCNCC2)C1 (stereo not drawn),inactive
6,COc1cc2c(cc1OCc1ccccc1)N(C(=O)COc1ccccc1C(N)=O)CC21CCN(C)CC1,"inconclusive: 39.8 µM [inhibitor, partial curve]"
7,CN1CCN(c2ccc([N+](=O)[O-])c(NCc3ccco3)c2)CC1,inactive
8,O=C(NCCN1CCC2(CC1)C(=O)NCN2c1ccccc1)c1cccs1,"inconclusive: 35.5 µM [inhibitor, partial curve]"
9,O=S(=O)(c1ccc(O)cc1)c1ccc(O)cc1,inactive
10,COc1ccc(C(c2nnnn2C2CCCCC2)N2CCC3(CC2)C(=O)NCN3c2ccccc2)cc1 (stereo not drawn),inactive
11,CC(=NCCc1ccccc1)c1c(O)n(C)c(=O)n(C)c1=O,"inconclusive: 89.1 µM [inhibitor, partial curve, poor fit]"
12,C[N+](C)(N)CCCl,"inconclusive: 1.12 µM [inhibitor, full curve, poor fit]"
13,Cc1ccc(NC(=O)N(Cc2ccc3c(c2)OCO3)C2CCN(Cc3ccccc3)CC2)cc1C,inactive
14,CCOC(=O)C(O)(c1ccc(NC(=O)c2ccco2)c(OC)c1)C(F)(F)F (stereo not drawn),"inconclusive: 6.31 µM [inhibitor, full curve, poor fit]"
15,C[N+](C)(C)CC#CCN1CCCC1=O,"inconclusive: 44.7 µM [inhibitor, partial curve, poor fit]"
16,Cc1nn(Cc2ccccc2)c(C)c1C=C1C(=O)NC(=O)NC1=O,inactive
17,COc1ccc(N2C(=O)/C(=C/c3ccco3)C(=O)NC2=S)cc1,active: 8.91 µM
18,Cc1cccc(C2=NCC(=O)N(CC(=O)NCc3ccco3)c3sc4c(c32)CCCC4)c1,inactive
19,O=[S+]1([O-])NC2(CCN(Cc3ccccn3)C2)CNc2ccccc21 (stereo not drawn),inactive
20,O=[N+]([O-])c1ccc2c(c1)Cc1cc(O)ccc1-2,"inconclusive: 50.1 µM [inhibitor, partial curve, poor fit]"
21,CC12CC1(C)C(=O)N(c1cc(Cl)cc(Cl)c1)C2=O (stereo not drawn),"inconclusive: 89.1 µM [inhibitor, single point]"
